The supplement of paper PMC10849652
This is one part of the list.

Protein sequences, listed by entry. Tags and fused reporters are not part of them. Lines headed by an entry give the natural chain unless they say otherwise; changes in a name come on top.
UniProt Q9UNX4: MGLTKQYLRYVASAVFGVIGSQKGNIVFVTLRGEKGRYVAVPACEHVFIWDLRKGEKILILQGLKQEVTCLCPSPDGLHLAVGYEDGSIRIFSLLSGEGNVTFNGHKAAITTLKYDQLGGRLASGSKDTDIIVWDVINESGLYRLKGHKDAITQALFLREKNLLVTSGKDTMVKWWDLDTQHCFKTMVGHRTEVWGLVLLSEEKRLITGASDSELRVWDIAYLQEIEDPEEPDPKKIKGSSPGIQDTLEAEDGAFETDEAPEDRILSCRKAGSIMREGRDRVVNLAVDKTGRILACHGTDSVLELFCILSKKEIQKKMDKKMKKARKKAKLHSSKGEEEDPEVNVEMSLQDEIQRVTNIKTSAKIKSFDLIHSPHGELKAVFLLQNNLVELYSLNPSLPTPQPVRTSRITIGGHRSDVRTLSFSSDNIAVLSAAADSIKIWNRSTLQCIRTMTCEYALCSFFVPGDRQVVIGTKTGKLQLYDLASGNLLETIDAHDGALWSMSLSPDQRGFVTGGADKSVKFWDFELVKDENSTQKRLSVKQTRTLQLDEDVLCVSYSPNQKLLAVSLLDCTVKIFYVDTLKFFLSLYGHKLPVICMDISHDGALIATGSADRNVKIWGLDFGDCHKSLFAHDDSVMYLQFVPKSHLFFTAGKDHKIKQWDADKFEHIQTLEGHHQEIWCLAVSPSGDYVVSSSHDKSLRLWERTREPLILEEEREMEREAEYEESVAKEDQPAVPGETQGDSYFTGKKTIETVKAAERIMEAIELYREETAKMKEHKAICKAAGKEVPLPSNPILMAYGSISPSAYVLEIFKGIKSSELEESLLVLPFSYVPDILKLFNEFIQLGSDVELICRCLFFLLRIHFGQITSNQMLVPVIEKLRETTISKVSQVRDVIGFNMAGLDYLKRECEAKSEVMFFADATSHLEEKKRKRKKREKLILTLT
UniProt Q4G0F5, whole entry, looked up: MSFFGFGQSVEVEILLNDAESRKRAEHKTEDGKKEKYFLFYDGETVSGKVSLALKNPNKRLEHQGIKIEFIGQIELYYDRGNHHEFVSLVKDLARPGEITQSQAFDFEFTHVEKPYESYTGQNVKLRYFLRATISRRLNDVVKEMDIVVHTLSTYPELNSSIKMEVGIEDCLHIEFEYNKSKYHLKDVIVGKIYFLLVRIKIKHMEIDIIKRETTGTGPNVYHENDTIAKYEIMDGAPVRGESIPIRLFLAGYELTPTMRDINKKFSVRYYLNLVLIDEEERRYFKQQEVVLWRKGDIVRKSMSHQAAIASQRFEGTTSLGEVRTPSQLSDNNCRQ
UniProt A3KMH1: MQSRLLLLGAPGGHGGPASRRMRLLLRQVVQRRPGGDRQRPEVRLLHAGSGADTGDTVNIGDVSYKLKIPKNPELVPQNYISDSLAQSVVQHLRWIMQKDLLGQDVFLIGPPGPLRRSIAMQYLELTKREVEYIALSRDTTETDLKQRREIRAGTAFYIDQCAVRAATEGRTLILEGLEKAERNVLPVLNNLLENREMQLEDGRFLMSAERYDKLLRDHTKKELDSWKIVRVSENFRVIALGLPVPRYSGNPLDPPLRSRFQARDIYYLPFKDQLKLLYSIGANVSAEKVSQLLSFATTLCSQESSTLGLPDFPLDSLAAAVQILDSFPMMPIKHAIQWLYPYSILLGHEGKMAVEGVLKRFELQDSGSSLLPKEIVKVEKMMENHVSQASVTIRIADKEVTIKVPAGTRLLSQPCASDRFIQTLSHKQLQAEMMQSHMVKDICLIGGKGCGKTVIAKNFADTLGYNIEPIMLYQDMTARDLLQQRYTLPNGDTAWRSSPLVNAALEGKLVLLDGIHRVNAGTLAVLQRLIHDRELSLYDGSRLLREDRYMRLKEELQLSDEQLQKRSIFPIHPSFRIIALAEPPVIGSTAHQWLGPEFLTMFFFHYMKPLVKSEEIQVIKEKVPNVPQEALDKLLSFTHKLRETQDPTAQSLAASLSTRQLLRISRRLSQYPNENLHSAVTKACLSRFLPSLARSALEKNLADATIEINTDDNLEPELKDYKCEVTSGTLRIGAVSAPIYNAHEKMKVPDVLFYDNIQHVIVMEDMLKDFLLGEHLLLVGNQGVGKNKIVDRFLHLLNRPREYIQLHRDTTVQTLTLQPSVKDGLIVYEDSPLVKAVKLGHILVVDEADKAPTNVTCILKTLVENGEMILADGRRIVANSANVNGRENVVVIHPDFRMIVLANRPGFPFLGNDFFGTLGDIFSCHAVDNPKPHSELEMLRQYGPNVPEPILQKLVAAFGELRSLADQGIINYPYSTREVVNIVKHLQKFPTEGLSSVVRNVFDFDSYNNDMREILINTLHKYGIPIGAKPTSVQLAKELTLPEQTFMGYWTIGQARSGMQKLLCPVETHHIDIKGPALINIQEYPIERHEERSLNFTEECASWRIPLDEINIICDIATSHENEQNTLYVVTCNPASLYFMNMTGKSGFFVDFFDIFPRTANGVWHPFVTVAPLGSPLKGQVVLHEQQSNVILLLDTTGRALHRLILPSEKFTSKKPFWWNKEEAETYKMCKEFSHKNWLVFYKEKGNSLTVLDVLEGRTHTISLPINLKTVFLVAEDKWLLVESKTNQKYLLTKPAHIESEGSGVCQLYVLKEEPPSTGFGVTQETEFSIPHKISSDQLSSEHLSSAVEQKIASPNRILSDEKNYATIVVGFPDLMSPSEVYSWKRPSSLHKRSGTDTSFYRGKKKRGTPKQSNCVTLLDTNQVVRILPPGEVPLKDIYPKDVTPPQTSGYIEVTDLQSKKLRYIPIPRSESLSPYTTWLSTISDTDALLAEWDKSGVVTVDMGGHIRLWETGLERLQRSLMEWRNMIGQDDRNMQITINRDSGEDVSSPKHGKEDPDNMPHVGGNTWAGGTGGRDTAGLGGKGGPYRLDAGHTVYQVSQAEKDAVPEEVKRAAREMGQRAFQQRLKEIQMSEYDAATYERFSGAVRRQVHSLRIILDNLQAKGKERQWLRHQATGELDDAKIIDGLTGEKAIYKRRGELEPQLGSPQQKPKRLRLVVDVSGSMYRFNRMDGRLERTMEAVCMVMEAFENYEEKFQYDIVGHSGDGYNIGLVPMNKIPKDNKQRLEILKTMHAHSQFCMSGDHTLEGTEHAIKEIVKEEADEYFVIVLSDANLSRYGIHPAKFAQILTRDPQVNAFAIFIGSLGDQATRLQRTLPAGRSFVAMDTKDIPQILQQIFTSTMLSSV
UniProt O75554: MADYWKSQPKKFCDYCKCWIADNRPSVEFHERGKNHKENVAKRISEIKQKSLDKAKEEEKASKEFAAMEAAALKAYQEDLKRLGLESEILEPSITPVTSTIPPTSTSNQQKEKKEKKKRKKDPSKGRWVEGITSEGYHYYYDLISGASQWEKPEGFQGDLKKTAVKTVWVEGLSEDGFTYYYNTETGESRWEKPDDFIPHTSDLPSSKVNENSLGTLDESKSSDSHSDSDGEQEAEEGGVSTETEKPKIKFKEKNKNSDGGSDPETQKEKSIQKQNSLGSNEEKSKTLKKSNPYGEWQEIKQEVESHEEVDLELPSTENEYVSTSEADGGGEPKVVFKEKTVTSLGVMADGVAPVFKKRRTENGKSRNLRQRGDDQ
UniProt O43379: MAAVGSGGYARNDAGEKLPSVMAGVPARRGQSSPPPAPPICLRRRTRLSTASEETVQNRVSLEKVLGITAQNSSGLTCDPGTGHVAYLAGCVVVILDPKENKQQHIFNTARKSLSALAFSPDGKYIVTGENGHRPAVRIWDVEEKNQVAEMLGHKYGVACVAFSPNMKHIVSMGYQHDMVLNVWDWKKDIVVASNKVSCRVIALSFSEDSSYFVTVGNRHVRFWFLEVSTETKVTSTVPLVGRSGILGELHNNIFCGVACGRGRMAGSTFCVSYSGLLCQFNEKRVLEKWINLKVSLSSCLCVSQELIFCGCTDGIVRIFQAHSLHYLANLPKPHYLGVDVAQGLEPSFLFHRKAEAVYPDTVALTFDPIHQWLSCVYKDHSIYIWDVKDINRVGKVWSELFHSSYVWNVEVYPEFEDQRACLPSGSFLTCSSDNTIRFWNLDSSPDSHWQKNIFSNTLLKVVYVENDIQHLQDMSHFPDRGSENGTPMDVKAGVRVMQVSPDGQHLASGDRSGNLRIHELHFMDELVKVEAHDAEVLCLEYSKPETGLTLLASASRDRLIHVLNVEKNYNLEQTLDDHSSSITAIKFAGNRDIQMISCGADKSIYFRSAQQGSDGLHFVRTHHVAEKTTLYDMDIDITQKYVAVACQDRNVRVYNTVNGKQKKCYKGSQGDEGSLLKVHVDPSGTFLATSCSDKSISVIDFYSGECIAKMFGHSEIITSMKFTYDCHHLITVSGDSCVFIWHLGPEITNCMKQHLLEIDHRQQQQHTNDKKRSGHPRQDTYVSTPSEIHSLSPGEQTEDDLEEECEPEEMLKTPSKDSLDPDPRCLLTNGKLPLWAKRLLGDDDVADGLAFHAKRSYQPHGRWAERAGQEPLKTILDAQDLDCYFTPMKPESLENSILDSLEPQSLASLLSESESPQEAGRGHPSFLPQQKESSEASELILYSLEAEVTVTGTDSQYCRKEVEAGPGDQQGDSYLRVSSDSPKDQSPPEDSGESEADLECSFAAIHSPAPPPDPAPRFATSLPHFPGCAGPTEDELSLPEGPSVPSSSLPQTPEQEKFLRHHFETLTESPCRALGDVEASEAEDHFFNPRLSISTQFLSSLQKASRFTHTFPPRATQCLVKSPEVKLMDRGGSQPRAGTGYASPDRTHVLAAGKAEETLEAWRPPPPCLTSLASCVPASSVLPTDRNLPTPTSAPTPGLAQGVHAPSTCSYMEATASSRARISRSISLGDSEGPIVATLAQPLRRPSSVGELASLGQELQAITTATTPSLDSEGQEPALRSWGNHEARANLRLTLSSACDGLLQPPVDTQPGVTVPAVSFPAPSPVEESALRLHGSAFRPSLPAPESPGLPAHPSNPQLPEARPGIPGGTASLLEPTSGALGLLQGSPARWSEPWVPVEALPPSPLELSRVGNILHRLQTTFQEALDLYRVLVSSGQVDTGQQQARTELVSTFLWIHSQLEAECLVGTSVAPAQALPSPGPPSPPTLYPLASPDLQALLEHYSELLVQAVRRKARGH
UniProt Q641Q2, whole entry, looked up: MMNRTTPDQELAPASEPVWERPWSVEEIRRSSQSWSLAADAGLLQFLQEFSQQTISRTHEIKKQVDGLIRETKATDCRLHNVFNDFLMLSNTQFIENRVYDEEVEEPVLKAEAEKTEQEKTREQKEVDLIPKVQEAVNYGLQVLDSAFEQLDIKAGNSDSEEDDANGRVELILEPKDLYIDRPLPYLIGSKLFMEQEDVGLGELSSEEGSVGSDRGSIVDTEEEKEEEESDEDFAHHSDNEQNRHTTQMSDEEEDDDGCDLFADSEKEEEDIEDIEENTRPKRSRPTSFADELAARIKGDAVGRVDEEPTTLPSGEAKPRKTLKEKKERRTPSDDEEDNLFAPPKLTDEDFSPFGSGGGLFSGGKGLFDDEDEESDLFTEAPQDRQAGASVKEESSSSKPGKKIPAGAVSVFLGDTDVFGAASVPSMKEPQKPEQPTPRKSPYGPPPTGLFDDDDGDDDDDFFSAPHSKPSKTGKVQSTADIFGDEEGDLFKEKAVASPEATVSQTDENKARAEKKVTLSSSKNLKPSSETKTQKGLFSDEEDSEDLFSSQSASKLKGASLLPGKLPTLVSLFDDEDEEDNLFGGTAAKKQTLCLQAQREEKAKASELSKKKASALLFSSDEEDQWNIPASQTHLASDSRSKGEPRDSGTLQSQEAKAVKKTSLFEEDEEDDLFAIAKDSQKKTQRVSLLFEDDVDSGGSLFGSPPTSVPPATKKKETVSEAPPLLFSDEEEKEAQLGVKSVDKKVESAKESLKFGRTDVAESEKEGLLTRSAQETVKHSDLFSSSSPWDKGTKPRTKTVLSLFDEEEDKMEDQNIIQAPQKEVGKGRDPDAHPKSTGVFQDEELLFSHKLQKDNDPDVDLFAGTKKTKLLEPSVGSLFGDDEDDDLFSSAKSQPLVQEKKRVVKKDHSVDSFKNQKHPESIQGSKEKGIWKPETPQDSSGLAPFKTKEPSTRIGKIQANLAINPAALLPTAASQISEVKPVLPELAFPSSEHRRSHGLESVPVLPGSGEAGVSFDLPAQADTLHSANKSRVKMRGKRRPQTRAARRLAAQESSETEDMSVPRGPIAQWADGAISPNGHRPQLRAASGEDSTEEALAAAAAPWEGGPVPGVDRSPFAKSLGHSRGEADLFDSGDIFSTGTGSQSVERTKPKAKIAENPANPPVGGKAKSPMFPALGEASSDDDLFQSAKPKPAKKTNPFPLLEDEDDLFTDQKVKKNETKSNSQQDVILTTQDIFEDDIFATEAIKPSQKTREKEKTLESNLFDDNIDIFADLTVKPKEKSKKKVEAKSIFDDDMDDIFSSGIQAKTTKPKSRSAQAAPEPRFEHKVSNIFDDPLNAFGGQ

Tests used:
Experiment in all cases: log2 fold change, soluble protein after heating vs DMSO (PISA); higher = thermal stabilisation; K562 cells, 10 uM, 30 min; active = over 0.2 and 3.5 SD of the protein, either way, in both replicates (recomputed)
[1] = compound: CC1=C(C=C(C=C1)NC(=O)C2=CC(=CC=C2)C(C)(C)C#N)NC3=CC4=C(C=C3)N=CN(C4=O)C
Summary of the method: (§1)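 K562 cells at 2×10^6 cells/mL were exposed to 10 μM compound for 30 min, then aliquots were heated for 3 min across 48°C-58°C, pooled, and extracted in PBS containing 0.5% NP-40 at 4°C. The supernatant after 21,000xg for 90 min was taken as soluble protein and measured by TMTpro 16plex LC-MS/MS with channel sums equalised. Thermal stability is reported relative to control samples, with values from duplicates. Fold changes are given on a log2 scale.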

[2] = compound: CC1=C(C=C(C=C1)NC(=O)C2=CC(=CC=C2)N(C)C)NC(=O)C3=CC=C(C=C3)O
Summary of the method: as §1

[3] = compound: CC1=CC=C(C=C1)SC2=C3C=C(SC3=CN=C2)C(=O)N
Summary of the method: as §1

[4] = compound: CC1=NC(=CC=C1)C2=C(N=C(N2)C(C)(C)C)C3=CC4=NC=CN=C4C=C3
Summary of the method: as §1

Nexturastat A = compound: CCCCN(Cc1ccc(C(=O)NO)cc1)C(=O)Nc1ccccc1 [Nexturastat A]
Summary of the method: as §1

vemurafenib = compound: CCCS(=O)(=O)Nc1ccc(F)c(C(=O)c2c[nH]c3ncc(-c4ccc(Cl)cc4)cc23)c1F [vemurafenib]
Summary of the method: as §1

[5] = compound: CCCS(=O)(=O)Nc1ccc(F)c(C(=O)c2c[nH]c3ncc(Cl)cc23)c1F
Summary of the method: as §1

[6] = compound: CCCc1cc(C)[nH]c(=O)c1CNC(=O)c1cc(-c2ccnc(N3CCN(C)CC3)c2)cc2c1cnn2C(C)C
Summary of the method: as §1

givinostat = compound: CCN(CC)Cc1ccc2cc(COC(=O)Nc3ccc(C(=O)NO)cc3)ccc2c1 [givinostat]
Summary of the method: as §1

barasertib = compound: CCN(CCCOc1ccc2c(Nc3cc(CC(=O)Nc4cccc(F)c4)[nH]n3)ncnc2c1)CCOP(=O)(O)O [barasertib]
Summary of the method: as §1

[7] = compound: CC[C@@H]1C(=O)N(C)c2cnc(Nc3ccc(C(=O)NC4CCN(C)CC4)cc3OC)nc2N1C1CCCC1
Summary of the method: as §1

volasertib = compound: CC[C@@H]1C(=O)N(C)c2cnc(Nc3ccc(C(=O)N[C@H]4CC[C@H](N5CCN(CC6CC6)CC5)CC4)cc3OC)nc2N1C(C)C [volasertib]
Summary of the method: as §1

[8] = compound: CC[C@H](C)N1C=C(C2=C(C=C(C=C21)C3=CN=C(C=C3)N4CCNCC4)C(=O)NCC5=C(C=C(NC5=O)C)C)C
Summary of the method: as §1

epoxomicin = compound: CC[C@H](C)[C@@H](C(=O)N[C@@H]([C@@H](C)O)C(=O)N[C@@H](CC(C)C)C(=O)[C@]1(CO1)C)NC(=O)[C@H]([C@@H](C)CC)N(C)C(=O)C [epoxomicin]
Summary of the method: as §1

[9] = compound: CCn1c(C(=O)N(C2CC2)C2CC2)cc2c3c(ncn3C)c(Nc3cc(C)n(C)n3)nc21
Summary of the method: as §1

[10] = compound: CCn1cc(-c2ccnc3[nH]c(-c4cccc(CN(C)C)c4)cc23)c(-c2ccc(NC(=O)N(C)C)cc2)n1
Summary of the method: as §1

[11] = compound: CN(C)CC(=O)Nc1ccc2[nH]c(=O)c3ccccc3c2c1
Summary of the method: as §1

rosiglitazone = compound: CN(CCOC1=CC=C(C=C1)C[C@H]2C(=O)NC(=O)S2)C3=CC=CC=N3 (racemic) [rosiglitazone]
Summary of the method: as §1

[12] = compound: CN1C2=C(C3=C1C(=O)N(N=C3)CC4=CC(=CC=C4)N)SC(=C2)S(=O)C
Summary of the method: as §1

[13] = compound: CN1CCC(CNc2ccc3ncc(-c4cccc(OC(F)(F)F)c4)n3n2)CC1
Summary of the method: as §1

Target	log2 fold change [1]	log2 fold change [2]	log2 fold change [3]	log2 fold change [4]	log2 fold change (Nexturastat A)	log2 fold change (vemurafenib)	log2 fold change [5]	log2 fold change [6]	log2 fold change (givinostat)	log2 fold change (barasertib)	log2 fold change [7]	log2 fold change (volasertib)	log2 fold change [8]	log2 fold change (epoxomicin)	log2 fold change [9]	log2 fold change [10]	log2 fold change [11]	log2 fold change (rosiglitazone)	log2 fold change [12]	log2 fold change [13]
WDR77 (UniProt Q9BQA1)	inactive: 0.026	inactive: -0.008	inactive: -0.003	inactive: 0.047	inactive: -0.019	inactive: 0.051	inactive: 0.025	inactive: 0.041	inactive: -0.09	inactive: 0.006	inactive: -0.024	inactive: -0.027	inactive: 0.017	inactive: 0.03	inactive: -0.004	inactive: 0.018	inactive: 0.032	inactive: 0	inactive: -0.054	inactive: 0.017
WDR3 (UniProt Q9UNX4)	inactive: 0.108	inactive: -0.002	inactive: -0.102	inactive: -0.096	inactive: 0.169	inactive: -0.061	inactive: -0.049	inactive: 0.175	inactive: 0.103	inactive: -0.039	inactive: 0.093	inactive: 0.04	inactive: 0.118	inactive: -0.245	inactive: -0.013	inactive: 0.087	inactive: -0.167	inactive: 0.024	inactive: 0.247	inactive: 0.275
VEZF1 (UniProt Q14119)	inactive: -0.002	inactive: 0.081	inactive: -0.172	inactive: -0.159	inactive: 0.055	inactive: -0.116	inactive: -0.156	inactive: 0.053	inactive: -0.055	inactive: -0.083	inactive: 0.191	inactive: 0.262	inactive: -0.025	inactive: -0.138	inactive: 0.056	inactive: 0.067	inactive: -0.14	inactive: -0.077	inactive: 0.322	inactive: 0.137
VPS26B (UniProt Q4G0F5)	inactive: 0.017	inactive: 0	inactive: -0.002	inactive: 0.018	inactive: -0.027	inactive: -0.026	inactive: 0.042	inactive: -0.043	inactive: 0.019	inactive: 0.019	inactive: -0.009	inactive: -0.068	inactive: 0.007	inactive: -0.029	inactive: 0	inactive: -0.103	inactive: -0.03	inactive: 0.016	inactive: -0.094	inactive: -0.173
VRK1 (UniProt Q99986)	inactive: -0.089	inactive: -0.121	inactive: 0.096	inactive: 0.063	inactive: -0.085	inactive: 0.122	inactive: 0.072	inactive: 0.108	inactive: 0.046	inactive: 0.075	inactive: -0.184	inactive: -0.159	inactive: 0.102	inactive: 0.169		inactive: -0.06	inactive: 0.135		inactive: -0.028	inactive: -0.03
VWA8 (UniProt A3KMH1)	inactive: -0.07	inactive: 0.042	inactive: 0.023	inactive: 0.019	inactive: -0.059	inactive: 0.034	inactive: 0.011	inactive: 0.032	inactive: 0.025	inactive: 0.022	inactive: -0.027	inactive: -0.071	inactive: 0.048	inactive: -0.005		inactive: -0.094	inactive: 0.056		inactive: -0.01	inactive: -0.034
WASHC5 (UniProt Q12768)	inactive: -0.011	inactive: -0.011	inactive: 0	inactive: -0.006	inactive: 0.052	inactive: 0.004	inactive: 0.004	inactive: 0.065	inactive: 0.085	inactive: 0.077	inactive: -0.109	inactive: -0.268	inactive: 0.09	inactive: 0.049		inactive: 0.035	inactive: 0.045		inactive: -0.006	inactive: -0.114
VPS28 (UniProt Q9UK41)	inactive: 0.029	inactive: -0.044	inactive: 0.055	inactive: 0.004	inactive: -0.018	inactive: 0.041	inactive: -0.008	inactive: -0.074	inactive: -0.024	inactive: 0.061	inactive: -0.057	active: -0.3	inactive: 0.032	inactive: 0.09		inactive: -0.048	inactive: 0.011		inactive: -0.038	inactive: -0.139
WASHC2C, A0A096LPC5	inactive: -0.059	inactive: 0.062	inactive: -0.107	inactive: -0.041	inactive: 0	inactive: 0.039	inactive: -0.206	inactive: -0.101	inactive: -0.012	inactive: -0.037	inactive: 0.034	inactive: -0.111	inactive: -0.03	inactive: -0.016		inactive: -0.132	inactive: 0.012		inactive: 0.142	active: -0.507
VPS39 (UniProt Q96JC1)	inactive: 0.049	inactive: -0.015	inactive: 0.011	inactive: 0.031	inactive: 0.014	inactive: 0.041	inactive: 0.059	inactive: -0.029	inactive: 0.019	inactive: 0.053	inactive: -0.206	active: -0.354	inactive: 0.054	inactive: -0.017		inactive: -0.091	inactive: 0.022		inactive: 0.008	inactive: -0.187
WBP4 (UniProt O75554)	inactive: 0.105	inactive: 0.044	inactive: 0.057	inactive: -0.036	inactive: -0.047	inactive: 0.022	inactive: 0.011	inactive: 0	inactive: -0.043	inactive: -0.022	inactive: -0.004	inactive: -0.045	inactive: 0.003	inactive: 0.069		inactive: -0.089	inactive: -0.036		inactive: -0.058	inactive: 0.218
WASH2P (UniProt Q6VEQ5)	inactive: -0.001	inactive: -0.034	inactive: 0.019	inactive: 0	inactive: 0.139	inactive: 0.03	inactive: -0.01	inactive: 0.026	inactive: -0.007	inactive: 0.043	inactive: -0.071	inactive: -0.163	inactive: 0.024	inactive: 0		inactive: 0.037	inactive: 0.021		inactive: 0.012	inactive: -0.067
WDR41 (UniProt Q9HAD4)	inactive: 0.044	inactive: 0	inactive: -0.007	inactive: 0.001	inactive: 0.002	inactive: 0.008	inactive: 0.036	inactive: -0.011	inactive: -0.04	inactive: 0.033	inactive: -0.169	active: -0.282	inactive: -0.056	inactive: 0.061		inactive: -0.043	inactive: 0.012		inactive: -0.076	inactive: -0.115
WDCP (UniProt Q9H6R7)	inactive: 0.003	inactive: 0.013	inactive: -0.103	inactive: -0.023	inactive: 0.061	inactive: -0.087	inactive: 0.025	inactive: -0.004	inactive: 0.116	inactive: -0.06	inactive: -0.196	active: -0.477	inactive: 0.102	inactive: 0.127		inactive: 0.071	inactive: 0.057		inactive: 0.124	inactive: -0.019
WDR62 isoform 4 (UniProt O43379)	inactive: -0.123	inactive: -0.015	inactive: -0.055	inactive: -0.033	inactive: 0.029	inactive: 0.008	inactive: 0.053	inactive: -0.014	inactive: 0.022	inactive: 0.032	inactive: -0.02	active: -0.496	inactive: 0.04	inactive: 0		inactive: 0.007	inactive: -0.035		inactive: 0.047	inactive: -0.161
VPS16 (UniProt Q9H269)	inactive: 0.023	inactive: 0.011	inactive: 0.032	inactive: -0.013	inactive: 0.038	inactive: 0.017	inactive: 0.109	inactive: 0	inactive: 0.075	inactive: -0.086	inactive: -0.244	active: -0.671	inactive: 0.042	inactive: 0.045		inactive: -0.072	inactive: 0.083		inactive: 0.026	inactive: -0.316
WASHC2A (UniProt Q641Q2)	inactive: -0.053	inactive: -0.012	inactive: -0.039	inactive: -0.014	inactive: 0.004	inactive: -0.041	inactive: -0.005	inactive: 0.085	inactive: 0.004	inactive: 0.032	inactive: -0.058	inactive: -0.15	inactive: 0.026	inactive: 0.022		inactive: 0.052	inactive: -0.046		inactive: 0.037	inactive: -0.18
WDR37 isoform 2 (UniProt Q9Y2I8)	inactive: 0.013	inactive: 0.068	inactive: -0.019	inactive: -0.138	inactive: 0.039	inactive: 0.01	inactive: 0.012	inactive: 0.028	inactive: -0.018	inactive: 0.04	inactive: 0.078	inactive: -0.022	inactive: -0.005	inactive: -0.049		inactive: -0.049	inactive: -0.004		inactive: 0.246	inactive: -0.005

An excerpt of these results, as a markdown table:

| Target | log2 fold change [1] | log2 fold change [2] | log2 fold change [3] | log2 fold change [4] | log2 fold change (Nexturastat A) | log2 fold change (vemurafenib) | log2 fold change [5] | log2 fold change [6] | log2 fold change (givinostat) | log2 fold change (barasertib) | log2 fold change [7] | log2 fold change (volasertib) | log2 fold change [8] | log2 fold change (epoxomicin) | log2 fold change [9] | log2 fold change [10] | log2 fold change [11] | log2 fold change (rosiglitazone) | log2 fold change [12] | log2 fold change [13] |
| --- | --- | --- | --- | --- | --- | --- | --- | --- | --- | --- | --- | --- | --- | --- | --- | --- | --- | --- | --- | --- |
| WDR62 isoform 4 (UniProt O43379) | inactive: -0.123 | inactive: -0.015 | inactive: -0.055 | inactive: -0.033 | inactive: 0.029 | inactive: 0.008 | inactive: 0.053 | inactive: -0.014 | inactive: 0.022 | inactive: 0.032 | inactive: -0.02 | active: -0.496 | inactive: 0.04 | inactive: 0 |  | inactive: 0.007 | inactive: -0.035 |  | inactive: 0.047 | inactive: -0.161 |
| VPS16 (UniProt Q9H269) | inactive: 0.023 | inactive: 0.011 | inactive: 0.032 | inactive: -0.013 | inactive: 0.038 | inactive: 0.017 | inactive: 0.109 | inactive: 0 | inactive: 0.075 | inactive: -0.086 | inactive: -0.244 | active: -0.671 | inactive: 0.042 | inactive: 0.045 |  | inactive: -0.072 | inactive: 0.083 |  | inactive: 0.026 | inactive: -0.316 |
| WASHC2A (UniProt Q641Q2) | inactive: -0.053 | inactive: -0.012 | inactive: -0.039 | inactive: -0.014 | inactive: 0.004 | inactive: -0.041 | inactive: -0.005 | inactive: 0.085 | inactive: 0.004 | inactive: 0.032 | inactive: -0.058 | inactive: -0.15 | inactive: 0.026 | inactive: 0.022 |  | inactive: 0.052 | inactive: -0.046 |  | inactive: 0.037 | inactive: -0.18 |
| WDR37 isoform 2 (UniProt Q9Y2I8) | inactive: 0.013 | inactive: 0.068 | inactive: -0.019 | inactive: -0.138 | inactive: 0.039 | inactive: 0.01 | inactive: 0.012 | inactive: 0.028 | inactive: -0.018 | inactive: 0.04 | inactive: 0.078 | inactive: -0.022 | inactive: -0.005 | inactive: -0.049 |  | inactive: -0.049 | inactive: -0.004 |  | inactive: 0.246 | inactive: -0.005 |
